Measured values as given in article PMC12505970.
Results are given in words; binding and its absence hold for the method and conditions named. In cells and extracts the contact can be indirect. Binding calls can cover weak binding; strength is not graded here.

The chains behind the UniProt entries cited, without tags or fusion partners. Where a name states a change or a piece, a line headed by the entry shows the natural chain unless it says otherwise.
UniProt Q2G2G6: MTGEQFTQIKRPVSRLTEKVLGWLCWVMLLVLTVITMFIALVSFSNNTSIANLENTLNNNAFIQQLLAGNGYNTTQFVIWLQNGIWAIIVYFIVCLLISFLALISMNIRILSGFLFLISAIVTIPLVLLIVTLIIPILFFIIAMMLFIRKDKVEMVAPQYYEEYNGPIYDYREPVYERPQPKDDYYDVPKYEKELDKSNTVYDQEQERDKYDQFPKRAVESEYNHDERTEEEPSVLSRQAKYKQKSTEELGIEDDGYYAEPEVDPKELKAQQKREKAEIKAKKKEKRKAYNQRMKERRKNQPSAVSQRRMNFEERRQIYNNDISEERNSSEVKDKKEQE
UniProt A5ISX6: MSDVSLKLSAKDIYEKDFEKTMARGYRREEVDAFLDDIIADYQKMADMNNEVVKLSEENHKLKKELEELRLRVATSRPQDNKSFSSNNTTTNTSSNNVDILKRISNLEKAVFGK
UniProt A0A0H2XGG5: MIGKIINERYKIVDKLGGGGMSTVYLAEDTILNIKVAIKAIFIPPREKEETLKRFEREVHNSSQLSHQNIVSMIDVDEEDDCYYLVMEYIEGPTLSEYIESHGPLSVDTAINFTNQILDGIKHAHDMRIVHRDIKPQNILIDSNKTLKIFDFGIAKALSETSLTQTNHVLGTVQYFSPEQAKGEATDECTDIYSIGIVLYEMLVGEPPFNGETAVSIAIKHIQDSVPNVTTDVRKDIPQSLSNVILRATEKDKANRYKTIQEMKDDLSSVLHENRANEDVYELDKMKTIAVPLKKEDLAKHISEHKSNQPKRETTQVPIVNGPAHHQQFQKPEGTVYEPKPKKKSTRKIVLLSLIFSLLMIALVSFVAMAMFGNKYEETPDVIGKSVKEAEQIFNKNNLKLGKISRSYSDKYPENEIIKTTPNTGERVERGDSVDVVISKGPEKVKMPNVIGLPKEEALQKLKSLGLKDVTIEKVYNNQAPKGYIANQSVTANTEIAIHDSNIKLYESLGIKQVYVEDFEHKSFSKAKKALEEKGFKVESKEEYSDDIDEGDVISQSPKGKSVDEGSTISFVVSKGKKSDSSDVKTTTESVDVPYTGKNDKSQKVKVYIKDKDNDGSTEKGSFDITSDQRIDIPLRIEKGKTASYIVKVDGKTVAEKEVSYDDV

Target: FLAG-AuxB (AuxB^WT) (S. aureus) (UniProt Q2G2G6)
Experiment: co-IP; FLAG-tagged bait from S. aureus membranes solubilised in 1% DDM (PBS pH 7.4, NaCl), α-FLAG M2 magnetic beads at 4°C, washes with decreasing DDM, elution with 3×FLAG peptide; Coomassie-stained gel, bands identified by LC-MS

GpsB (endogenous, S. aureus) (from UniProt A5ISX6 1-114)
binding: binds

PknB (endogenous, S. aureus) (from UniProt A0A0H2XGG5)
binding: binds
